## Primary screen of a compound library

Protein sequences, listed by entry. Tags and fused reporters are not part of them.
UniProt E9BF75, entry or part of it: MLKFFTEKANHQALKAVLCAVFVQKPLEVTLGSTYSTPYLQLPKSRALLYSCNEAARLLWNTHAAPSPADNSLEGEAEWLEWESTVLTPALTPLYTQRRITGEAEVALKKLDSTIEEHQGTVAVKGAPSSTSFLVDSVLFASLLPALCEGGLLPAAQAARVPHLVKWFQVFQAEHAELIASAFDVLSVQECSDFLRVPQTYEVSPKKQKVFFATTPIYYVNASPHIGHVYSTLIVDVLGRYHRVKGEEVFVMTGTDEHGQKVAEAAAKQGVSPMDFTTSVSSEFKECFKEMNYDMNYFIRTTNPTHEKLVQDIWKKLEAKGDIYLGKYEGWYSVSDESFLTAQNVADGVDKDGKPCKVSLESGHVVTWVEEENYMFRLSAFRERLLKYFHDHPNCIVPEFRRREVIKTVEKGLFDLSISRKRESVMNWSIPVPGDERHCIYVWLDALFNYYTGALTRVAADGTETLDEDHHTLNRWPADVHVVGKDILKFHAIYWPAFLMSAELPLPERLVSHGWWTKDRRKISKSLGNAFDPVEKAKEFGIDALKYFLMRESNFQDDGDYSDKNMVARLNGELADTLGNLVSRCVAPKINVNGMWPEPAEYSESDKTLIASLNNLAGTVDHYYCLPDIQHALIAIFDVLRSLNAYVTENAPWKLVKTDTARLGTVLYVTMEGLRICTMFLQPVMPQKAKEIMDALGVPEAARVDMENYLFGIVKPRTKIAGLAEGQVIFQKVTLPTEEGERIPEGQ

The values are deposited in ChEMBL (CHEMBL3988442, “University of Dundee, Small-Polar-MMV Screening Library” (2021)).

Mtb heat-shock: 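Assay on Mycobacterium tuberculosis, filed only as a heat shock assay from Cornell; the read-out is not stated. The concentration is filed as 10 mM, unlikely as a test dose, so the dose is not known. The record gives no direction; compounds that gave an IC50 in retests scored well above the rest, so higher reads as stronger inhibition. Size under these conditions: about 69,000 compounds, about 930 of them at 50% or above in at least one test.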
Mtb growth Cornell: 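Whole-cell assay for inhibitors of Mycobacterium tuberculosis growth, labelled Cornell in the record; the read-out is not stated. The concentration is filed as 10 mM, unlikely as a test dose, so the dose is not known. The record gives no direction; compounds strong in two other growth screens of this library score well above the rest, so higher reads as stronger inhibition. Size under these conditions: about 53,000 compounds, about 900 of them at 50% or above in at least one test.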
LdMetRS: 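Methionyl-tRNA synthetase (putative), Leishmania donovani (UniProt E9BF75). Primary screen of methionyl-tRNA synthetase; the read-out is not stated. The test concentration is not given. The values are filed as inhibition. Size under these conditions: about 68,000 compounds, about 24 of them at 50% or above in at least one test.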

All values are in %. The record does not define 0% and 100%; most values in the screen are far below 50% and negative numbers occur (in some assays of this library far below -100). This is an unselected part of the compounds tested.

Result for CCCc1nc(CN2CCN(Cc3noc(CCC)n3)CC2)no1 was Mtb heat-shock: -4.901%; LdMetRS: 15.97%.
Result for COCC1c2c(cnn2C)CCN1Cc1ccoc1 (stereo not given) was Mtb heat-shock: 6.366%; Mtb growth Cornell: 12.26%; LdMetRS: 14.29%.
Result for CCn1c(C)nnc1CN(C)C1CCN(CC2CCC2)C1 (stereo not given) was Mtb heat-shock: -16.33%; LdMetRS: 7.735%.
Result for O=C(O)C(F)(F)F.O=C(c1ccco1)N1CCCC2(CN(Cc3ccsc3)CCO2)C1 (stereo not given) was Mtb heat-shock: -27.01%; Mtb growth Cornell: 12.3%.
Result for [H][C@@]12COC[C@]1([H])[C@H](N(CC)CC)CN2Cc1cnn(C)c1 was Mtb heat-shock: -25.88%; Mtb growth Cornell: -12.38%.
Result for COc1ccc(C(=O)Nc2ccccc2-c2ccc(=O)n(C)n2)cc1 was Mtb heat-shock: 13.08%; Mtb growth Cornell: 3.398%; LdMetRS: 9.353%.
Result for Cc1ccc(CN2CCCn3nnc(COCC4CC4)c3C2)s1.O=C(O)C(F)(F)F was Mtb heat-shock: 6.692%.
Result for Cc1noc(Cl)c1CC(=O)NCCOc1ccc(F)cc1F was Mtb heat-shock: 27.1%; LdMetRS: 13.92%.
Result for CNc1nccnc1C1CN(Cc2ccc(OCC(=O)O)cc2)CCO1 (stereo not given) was Mtb heat-shock: 0.05369%; Mtb growth Cornell: -6.429%; LdMetRS: 8.861%.
Result for O=C(O)C(F)(F)F.O=C(O)C(F)(F)F.O=C(O)C(F)(F)F.[H][C@@]12CCN(Cc3cnn(C)c3)[C@@]1([H])CCN2Cc1cccc(C)n1 was Mtb heat-shock: -12.06%; Mtb growth Cornell: -12.97%.
Result for Cc1ccc(C(=O)NCC2CCN(C)c3ccccc32)c(=O)[nH]1 (stereo not given) was Mtb heat-shock: 10.81%; Mtb growth Cornell: -21.36%; LdMetRS: 9.42%.
Result for Cn1ncc(NC(=O)Cn2ccc(-c3ccc(F)cc3)n2)n1 was Mtb heat-shock: -1.91%; Mtb growth Cornell: 22.69%; LdMetRS: 13.06%.
Result for COCCN1CCC(c2cncc(-c3ccccc3C)n2)CC1 was Mtb heat-shock: 3.762%; Mtb growth Cornell: 2.772%; LdMetRS: 10.94%.
Result for CC(Cn1cccn1)NCc1csc2c1CCCC2 (stereo not given) was Mtb heat-shock: -4.744%; Mtb growth Cornell: -0.7044%; LdMetRS: 6.183%.
Result for Cc1ccc(CN2CC[C@@]3(O)CCN(S(=O)(=O)N(C)C)C[C@H]3C2)cc1C was LdMetRS: 12.32%.
Result for Cn1nccc1C(=O)N1Cc2ccccc2OC2(CCOCC2)C1 was Mtb heat-shock: 5.651%; Mtb growth Cornell: -5.295%; LdMetRS: 12.86%.
Result for CCn1ncc(C(=O)NCCc2nc(-c3ccncc3)n[nH]2)c1C was Mtb heat-shock: 3.559%; Mtb growth Cornell: 15.86%; LdMetRS: 12.77%.
Result for CCCS(=O)(=O)N1Cc2ccnn2CC(c2nc(C)no2)C1.O=C(O)C(F)(F)F (stereo not given) was Mtb heat-shock: 4.88%; Mtb growth Cornell: 11.51%.
Result for CCC(CC)CN1CCC2(CCCN(c3ncccn3)C2)C1 (stereo not given) was Mtb heat-shock: -4.825%; Mtb growth Cornell: -23.11%; LdMetRS: 0.9524%.
Result for Cc1cccc(N2CCC(NC(C)c3cccs3)CC2)n1 (stereo not given) was Mtb heat-shock: -9.798%; Mtb growth Cornell: -21.82%; LdMetRS: 4.381%.
Result for COc1ccc2c(c1)Cc1c-2nc(N)c(C#N)c1C1CCOC1 (stereo not given) was Mtb heat-shock: 20.33%; Mtb growth Cornell: 19.39%; LdMetRS: 17.34%.
Result for COc1ccccc1CNC(=O)COc1c(C)n(C)ccc1=O was Mtb heat-shock: 0.5731%; Mtb growth Cornell: 7.829%; LdMetRS: 16.06%.
Result for Cc1nccn1-c1ccc(N2CCC(N[C@H](C)C(C)C)CC2)cc1 was Mtb heat-shock: -23.41%; Mtb growth Cornell: -9.908%; LdMetRS: 11.17%.
Result for Cc1cc(N2CCC(N(C)C(=O)Nc3ccccc3)CC2)nc(C)n1 was Mtb heat-shock: -9.094%; Mtb growth Cornell: -44.24%; LdMetRS: 12.32%.
Result for N[C@@H]1CCN(Cc2ccc(-c3nc(-c4cccnc4)cc(=O)[nH]3)cc2)C1 was Mtb heat-shock: -6.913%; Mtb growth Cornell: -6.212%; LdMetRS: 8.939%.

The last 3 entries again:

{"smiles": "Cc1nccn1-c1ccc(N2CCC(N[C@H](C)C(C)C)CC2)cc1", "Mtb heat-shock": -23.41, "Mtb growth Cornell": -9.908, "LdMetRS": 11.17}
{"smiles": "Cc1cc(N2CCC(N(C)C(=O)Nc3ccccc3)CC2)nc(C)n1", "Mtb heat-shock": -9.094, "Mtb growth Cornell": -44.24, "LdMetRS": 12.32}
{"smiles": "N[C@@H]1CCN(Cc2ccc(-c3nc(-c4cccnc4)cc(=O)[nH]3)cc2)C1", "Mtb heat-shock": -6.913, "Mtb growth Cornell": -6.212, "LdMetRS": 8.939}